24 molecules from article PMC10163288 can be followed below.

B1: il2ra_site2_3nfp_sap_32_mot_HHH_b1_00050_000000292_0001_22_38_H_._HHH_b2_06764_0001_0000600039_0000001_0_0001 (protein)
chain: SSSSDESEEYFEAAFELVRLALEAGDPEAARRLLEMLELVAESQNDPELQRLVEELEEELSSSSS
B2: il2ra_site1_3nfp_sap_19_mot_ems_3hC_775_af2_000000072_0001_42_60_H_._7b9cde51a6333c7db752d4c93e9fe982_0001_af2_0001_0000100009_0000001_0_0001_af2pred_0001_af2pr … (protein)
chain: SSSSSREEVYKLLEEALRAAFNGNPEEAREILEEAEKIAKENNNEKAQKAVEKLEKSIKKGSSSS
B3: il2ra_site1_1z92_normal_mot_HHH_b2_00879_000000067_0001_1_17_H_._ems_3hC_963_0001_0000100004_0000001_0_af2pred_0001_af2pred (protein)
chain: SDAEEYFEKLLEEVRRIAEEKNNEEVRKLVEEAEELWKEAEEKDDFRASHEAMRIVIKARTLANS
B4: il2ra_site2_2erj_normal_mot_HHH_eva_0356_af2_000000103_0001_44_59_H_._ems_3hM_3512_0001_0000400007_0000001_0 (protein)
chain: SSNFVELLYELLRLADEAAENNDEELLREVEELIEEIRKEATDDAAREMAERALQMVEHVANASS
B5: il2ra_site1_1z92_sap_11_mot_HHH_b2_08161_000000286_0001_23_39_H_._c9d962b5daa49a68032752cb3d68fa00_0001_1_0002_0000200020_0000001_0_0001_af2pred_0001_af2pred (protein)
chain: GEELLKKIEEKAGGDPARIEQILLDLAHEALRKNDEELLEEVIEAIALLSDTPPEWARKQAEAVP
B6: il2ra_site1_1z92_sap_33_mot_HHH_b2_03816_af2_000000009_0001_40_54_H_._HHH_b2_06209_af2_0001_0000400019_0000001_0_0001_af2pred_0001_af2pred (protein)
chain: SSSSDLEEAAERLVEEIVEKLGLSEEQERVLRRLAELAVEAGLSERSIKRALEREAEFDRSSSSS
B7: il2ra_site2_2erj_sap_19_mot_HHH_b1_08207_af2_000000250_0001_43_57_H_._HHH_b1_06013_af2_0001_0000200012_0000001_0_0001 (protein)
chain: SSSSEEAEELLEKAEELLKKGNPEEAWRVLRRAATLAFRLGDEELFARLAELFEEAARLDVSSSS
B8: il2ra_site1_3nfp_sap_8_mot_HHH_b1_05162_af2_000000139_0001_1_18_H_._HHH_b2_03092_0001_0000300045_0000001_0_0001 (protein)
chain: SSSSDESEEVLEEVEELLREAWERGDVELYYEIARRAVEILEELNDPEALQRLFELAKHISSSSS
B9: il2ra_site2_2erj_sap_29_mot_HHH_b1_06627_000000072_0001_40_54_H_._HHH_b2_07310_af2_0001_0000100002_0000001_0_0001 (protein)
chain: SSSSDEEVLEAIEWAAEEEAKKDPEKARLYLELAERFAEISGDEEALERIEELLEELRKGSSSSS
B10: il2ra_site2_3nfp_normal_mot_HHH_b1_07242_000000112_0001_19_39_H_._ems_3hM_250_0001_0000100001_0000001_0 (protein)
chain: SNEELEEYIEVALRLAKEAARDPEIREKIEEVLEEFEKAKEKNDEHALSEVLQLALELAKEAAKS
B11: il2ra_site2_3nfp_normal_mot_HHH_b1_02297_000000279_0001_41_58_H_._HHH_b1_05936_0001_0000200007_0000001_0 (protein)
chain: SSSSDEEVRQLIEEAERLLEEGNPEEAFRVAAEASRIAFELNDFELFAAVNELAERIIRGSSSSS
B12: il2ra_site2_3nfp_normal_mot_HHH_b2_03679_af2_000000123_0001_41_56_H_._HHH_b1_07302_0001_0000700056_0000001_0 (protein)
chain: SSSSNTEEYLRAALALLERAVRRGDEEFVEKLFHLIHLAVHSARDPEAEERLEELYERFRSSSSS
B13: il2ra_site1_2b5i_sap_10_mot_HHH_b2_00109_af2_000000107_0001_39_57_H_._HHH_b1_08498_af2_0001_0000400018_0000001_0_0001_af2pred_dldesign_0_af2pred (protein)
chain: SSSSSEKVRRLIEELDRLLAAGELEKARELAKELAKVAAEEDDVELRTEAIKRIKRVELASSSSS
B14: il2ra_site2_2erj_sap_26_mot_6ec3e94b46d95805cdcdc10c0c108f03_0001_af2_000000040_0001_36_50_H_._HHH_b1_01725_0001_0000100002_0000001_0_0001 (protein)
chain: SSSSDESEEVLEEVEKELREARERGDLELLFEIAREALELLAKLNDPEAAEELDRLFMRLSSSSS
B15: il2ra_site2_2erj_normal_mot_HHH_b1_02566_000000063_0001_42_58_H_._HHH_b2_02780_0001_0000200010_0000001_0 (protein)
chain: SSSSSDTEVYEKVARLLAELQEIDDEEELRELLREAQELAEEVNSEALKRYVEFAERLLSSSSSS
B16: il2ra_site1_1z92_sap_10_mot_HHH_b2_05172_af2_000000284_0001_1_18_H_._HHH_b1_07609_0001_0000100008_0000001_0_0001_af2pred_dldesign_0_af2pred (protein)
chain: SSSSSSNVDDEIYDLFLKTHHSSKEERKKLLEEALALAKAAKNSKIVAELEKYLEMLKSSSSSSS
B17: il2ra_site2_2erj_sap_28_mot_HHH_b2_02500_af2_000000175_0001_19_35_H_._HHH_b1_04651_0001_0000200043_0000001_0_0001 (protein)
chain: SSSSNEDLKRAYELANEITRLLAEGDEEEVEKLLEELRELAERLKSPSLEEMVESLERKISSSSS
B18: il2ra_site1_3nfp_normal_mot_HHH_b1_05690_000000100_0001_1_15_H_._11405e7faed88c9d08fdae67291e590b_0001_1_0001_0000100004_0000001_0 (protein)
chain: SLERYVERAEELDPRLEELLKRALELIQELGDPELARLLIKVVALLELGDPETEKEAEELLRQIE
B19: il2ra_site1_1z92_normal_mot_01209686ea234b34325f918445e6eade_0001_af2_000000154_0001_18_33_H_._HHH_b1_01021_0001_0000100004_0000001_0_af2pred_0001_1_af2pred_swa … (protein)
chain: SSSSSDELEEFIEELVKELGLDEEAKETLERLLEKLQEQGVSERAIRRALERMARRMRGSSSSSS
B20: il2ra_site1_1z92_normal_mot_0a69b5c9b02373fb877a90f2b4b0d8e1_0001_1_af2_000000257_0001_17_32_H_._26f414d7b340708b6e9383f836a3294b_0001_af2_0001_0000200006_00000 … (protein)
chain: PEALEELFERSREQGIPPRSVARALLDALRRLGIPPEEVEELVRQVLERLLGDPEEAREVLEEAR
B21: il2ra_site1_1z92_normal_mot_HHH_b2_07758_000000290_0001_1_17_H_._HHH_b1_00264_0001_0000600035_0000001_0_af2pred_0001_af2pred_1_swapped (protein)
chain: SSSSSREERFLRRAVELAVKLAGLSPEQEEELEELARELAERGVDPLEASRILDKKASELSSSSS
B22: il2ra_site1_2b5i_sap_11_mot_HHH_b2_06044_000000134_0001_1_20_H_._HHH_b2_00948_af2_0001_0000100015_0000001_0_0001 (protein)
chain: SSSSDADERVQELFRRASELFRKGNPEEAQELLEEALELARERNDPRLVKDLEFILERIRSSSSS
B23: il2ra_site1_3nfp_normal_mot_HHH_b2_05933_af2_000000220_0001_1_18_H_._HHH_b1_07122_af2_0001_0000100001_0000001_0_af2pred_0001_af2pred_1 (protein)
chain: SSSSSNKEAARLLRQAAEAARNGNPEEAEELLEEALRIAEEAGNELLVRFIEQALKLVRALSSSS
B24: il2ra_site1_3nfp_normal_mot_ems_3hC_921_af2_000000143_0001_22_40_H_._HHH_b1_03028_0001_0000400037_0000001_0_af2pred_0001_af2pred (protein)
chain: SSSSSNKLEEFQRLAKEAHKIEDREELEEVLEELEKIAEEANSPVAELLVERLRKKAEELSSSSS

This is one part of the list.

The assay has as its target il2ra, P01589. Description: yeast display titration.
Take B1: the “apparent Kd” value was “inactive: no binding seen”.

Turning to B2, the “apparent Kd” value is “inactive: no binding seen”.

Turning to B3, the “apparent Kd” value is “inactive: no binding seen”.

As to B4, the “apparent Kd” value is “inactive: no binding seen”.

In the case of B5, the “apparent Kd” value is “inactive: no binding seen”.

For B6, the “apparent Kd” value was “inactive: no binding seen”.

B7: the “apparent Kd” value is “inactive: no binding seen”.

For B8, the “apparent Kd” value is “inactive: no binding seen”.

As to B9, the “apparent Kd” value is “inactive: no binding seen”.

On to B10, for which the “apparent Kd” value was “inactive: no binding seen”.

Consider B11, for which the “apparent Kd” value is “inactive: no binding seen”.

For B12, the “apparent Kd” value is “inactive: no binding seen”.

In the case of B13, the “apparent Kd” value was “inactive: no binding seen”.

Turning to B14, the “apparent Kd” value was “inactive: no binding seen”.

Regarding B15, the “apparent Kd” value is “inactive: no binding seen”.

Turning to B16, the “apparent Kd” value is “inactive: no binding seen”.

As to B17, the “apparent Kd” value is “inactive: no binding seen”.

With B18, the “apparent Kd” value is “inactive: no binding seen”.

Consider B19, for which the “apparent Kd” value is “inactive: no binding seen”.

For B20, the “apparent Kd” value was “inactive: no binding seen”.

B21: the “apparent Kd” value is “inactive: no binding seen”.

Take B22: the “apparent Kd” value was “inactive: no binding seen”.

Consider B23, for which the “apparent Kd” value is “inactive: no binding seen”.

For the molecule B24, the “apparent Kd” value is “inactive: no binding seen”.
